# Experimental data reported in the supplement of paper PMC7125110.
# ± gives the standard error. Many of these values have a large error.
# B1: glmS ribozyme (parent)
# chain: AUAAAAGCGCCAGAACUACAGAAAUGUAGUUGACGAGGAGGAGGUUUAUCGAAUUUUCGGCGGAUGCCUCCAAA
# Variants of: B1
# Assay: kcat; higher = faster cleavage; RNA array
# Conditions: with glucosamine-6-phosphate
# Procedure, shortened: (§1)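 E. coli RNA polymerase transcribed barcoded ribozyme variants in situ on sequenced MiSeq chips, which were tracked via a hybridised Cy3 probe at 37 °C. Tiles were imaged over ~14 h after glucosamine-6-phosphate (40 μM to 10 mM) in HEPES/KCl/Mg(OAc)2 buffer was flowed in. Normalised per-tile medians were fit to one- or two-exponential decays for kobs, and kcat and KM came from weighted Michaelis–Menten fits.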
row,Variant,kcat
1,U30A A36U C70G,5.43e-05 ± 2.9e-05 s⁻¹
2,G32C C70G,2.36e-05 ± 1.4e-05 s⁻¹
3,G32A C70U,0.00385 ± 0.0022 s⁻¹
4,A36C G38U C68G,2.64e-05 ± 2e-05 s⁻¹
5,G32C C34U U47A U54G C61G C70G,2.92e-05 ± 1.5e-05 s⁻¹
6,G59C C68G,2.78e-05 ± 1e-05 s⁻¹
7,U54C U55G,0.0129 ± 0.0076 s⁻¹
8,G40U U54G,0.00445 ± 0.0029 s⁻¹
9,U47G U54C,0.0127 ± 0.0066 s⁻¹
10,U57G C67G,3e-05 ± 1.6e-05 s⁻¹
11,C68U U69C,8.69e-05 ± 6.8e-06 s⁻¹
12,C34U C58U,< 1e-05 s⁻¹
13,A33C C50A,< 1e-05 s⁻¹
14,A33C C50G,2.17e-05 ± 2e-05 s⁻¹
15,U31G U65G,0.00259 ± 0.00018 s⁻¹
16,G40A U54C,0.00522 ± 0.00053 s⁻¹
17,U31A U56A,0.0044 ± 0.0036 s⁻¹
18,U56G U57G,< 1e-05 s⁻¹
19,U56G U57A,0.000613 ± 0.00046 s⁻¹
20,G43C G63A,< 1e-05 s⁻¹
21,U30C C58G C68A,5.09e-05 ± 2.1e-05 s⁻¹
22,U49A G59U,1.28e-05 ± 4.5e-06 s⁻¹
23,U31A G60U,< 1e-05 s⁻¹
24,U31C C58U,2.26e-05 ± 7.2e-06 s⁻¹
25,A39U A42C,0.000556 ± 3.1e-05 s⁻¹
26,G43U C68A,0.0321 ± 0.026 s⁻¹
27,U49G C50G G63C U69C,4.82e-05 ± 4.1e-05 s⁻¹

row,Variant,kcat
1,A42C C70U,1.24e-05 ± 3.3e-06 s⁻¹
2,A39U G43U,0.000561 ± 0.00011 s⁻¹
3,U31C G44A,3e-05 ± 1.6e-05 s⁻¹
4,G37U C50G,2.87e-05 ± 1.5e-05 s⁻¹
5,G32A U54A,0.00386 ± 0.001 s⁻¹
6,G40A C70A,0.000241 ± 1.6e-05 s⁻¹
7,G44C U46C,4.04e-05 ± 2.5e-05 s⁻¹
8,U47C A53G,0.00605 ± 0.0032 s⁻¹
9,C50U U65G,< 1e-05 s⁻¹
10,U47G C50A,3.95e-05 ± 3.5e-05 s⁻¹
11,A36C C70G,3.8e-05 ± 2.7e-05 s⁻¹
12,G37U A52U G60U C70G,1.37e-05 ± 8.1e-06 s⁻¹
13,U55A U69A,9.24e-05 ± 1e-05 s⁻¹
14,A36U G38U,< 1e-05 s⁻¹
15,A33G C61G,2.02e-05 ± 1.8e-05 s⁻¹
16,U55G,0.0523 ± 0.0043 s⁻¹
17,G38U U69A,2.33e-05 ± 1.2e-05 s⁻¹
18,G40U C71A,0.0152 ± 0.0083 s⁻¹
19,U56G C71U,0.00545 ± 0.0029 s⁻¹
20,U45A U55A A64G,0.00688 ± 0.0036 s⁻¹
21,A33U A42G,0.000108 ± 7.3e-06 s⁻¹
22,A33G A52G,< 1e-05 s⁻¹
23,C61G C70G C71G,5.21e-05 ± 2.7e-05 s⁻¹
24,U47A C50U,9.64e-05 ± 5.7e-05 s⁻¹
25,A39U G66A,0.0156 ± 0.0094 s⁻¹
26,A53C G59U,< 1e-05 s⁻¹
27,U47A U56A,0.022 ± 0.021 s⁻¹

# Variants of: B1
# Assay: self-cleavage kobs at 2500 uM GlcN6P; higher = faster cleavage; RNA array
# Conditions: with glucosamine-6-phosphate
# Procedure, shortened: as §1
row,Variant,self-cleavage kobs at 2500 uM GlcN6P
1,G32C C70G,1.81e-05 ± 1.5e-05 s⁻¹
2,G59C C68G,3.38e-05 ± 2.1e-05 s⁻¹
3,U57G C67G,4.17e-05 ± 2.1e-05 s⁻¹
4,A6C C71A,2.17e-05 ± 1.5e-05 s⁻¹
5,U49G C50G G63C U69C,4.92e-05 ± 3.2e-05 s⁻¹
6,G37U C50G,0.00214 ± 0.0014 s⁻¹
7,A36C C70G,0.000185 ± 0.00013 s⁻¹
8,G38U U69A,2.08e-05 ± 1.9e-05 s⁻¹
9,U47A C50U,2.01e-05 ± 1.1e-05 s⁻¹

# Variants of: B1
# Assay: KM; higher = weaker cofactor use; RNA array
# Conditions: with glucosamine-6-phosphate
# Procedure, shortened: as §1
row,Variant,KM
1,G32A C70U,3520 ± 2600 µM
2,U54C U55G,1460 ± 1200 µM
3,G40U U54G,2690 ± 2500 µM
4,A6C A15C,13400 ± 1200 µM
5,U47G U54C,2920 ± 2400 µM
6,C68U U69C,2850 ± 730 µM
7,A6C C71A,205 ± 38 µM
8,U31G U65G,4140 ± 440 µM
9,G40A U54C,908 ± 140 µM
10,U56G U57A,10500 ± 11000 µM
11,A39U A42C,3030 ± 290 µM
12,A42C C70U,7630 ± 4400 µM
13,A39U G43U,1770 ± 600 µM
14,G32A U54A,3520 ± 1300 µM
15,G40A C70A,350 ± 60 µM
16,U47C A53G,3040 ± 2100 µM
17,C50U U65G,2490 ± 2000 µM
18,U55G,2390 ± 240 µM
19,G40U C71A,971 ± 680 µM
20,U56G C71U,839 ± 700 µM
21,U45A U55A A64G,225 ± 200 µM
22,A33U A42G,2000 ± 350 µM
23,A39U G66A,3390 ± 2700 µM
24,A6C U55C,6150 ± 3900 µM

# Quoted from the listing.
# Value of U56G C71U under KM: 839 ± 700 µM
# Value of A6C U55C under KM: 6150 ± 3900 µM
# Value of A39U G43U under KM: 1770 ± 600 µM
# Value of G40U U54G under KM: 2690 ± 2500 µM
# Value of A42C C70U under KM: 7630 ± 4400 µM
# Value of A6C A15C under KM: 13400 ± 1200 µM

# Variants of: B1
# Assay: self-cleavage kobs at 640 uM GlcN6P; higher = faster cleavage; RNA array
# Conditions: with glucosamine-6-phosphate
# Procedure, shortened: as §1
row,Variant,self-cleavage kobs at 640 uM GlcN6P
1,G32C C34U U47A U54G C61G C70G,3.48e-05 ± 2.8e-05 s⁻¹
2,G37U C50G,3.33e-05 ± 1.7e-05 s⁻¹
3,U47A C50U,3.42e-05 ± 2.1e-05 s⁻¹
4,A6C U55C,2.74e-05 ± 1.7e-05 s⁻¹

# Variants of: B1
# Assay: self-cleavage kobs at 160 uM GlcN6P; higher = faster cleavage; RNA array
# Conditions: with glucosamine-6-phosphate
# Procedure, shortened: as §1
row,Variant,self-cleavage kobs at 160 uM GlcN6P
1,G40U U54G,8.53e-05 ± 5.2e-05 s⁻¹
2,U57G C67G,6.68e-05 ± 3.4e-05 s⁻¹
3,A33C C50G,0.000511 ± 0.00033 s⁻¹
4,U56G U57A,2.64e-05 ± 2.1e-05 s⁻¹
5,A36C C70G,0.000162 ± 0.00011 s⁻¹
6,G38U U69A,2.46e-05 ± 2.2e-05 s⁻¹

# Variants of: B1
# Assay: self-cleavage kobs at 40 uM GlcN6P; higher = faster cleavage; RNA array
# Conditions: with glucosamine-6-phosphate
# Procedure, shortened: as §1
row,Variant,self-cleavage kobs at 40 uM GlcN6P
1,A33C C50G,2.49e-05 ± 1.3e-05 s⁻¹
2,U31G U65G,2.01e-05 ± 1.2e-05 s⁻¹
3,U30C C58G C68A,2.4e-05 ± 2.3e-05 s⁻¹
4,U49G C50G G63C U69C,3.7e-05 ± 2.2e-05 s⁻¹
5,G37U C50G,2.63e-05 ± 2e-05 s⁻¹
6,A36C C70G,2.39e-05 ± 1.3e-05 s⁻¹
7,G38U U69A,1.9e-05 ± 1.8e-05 s⁻¹
8,C61G C70G C71G,2.95e-05 ± 2.1e-05 s⁻¹

# Variants of: B1
# Assay: self-cleavage kobs at 10000 uM GlcN6P; higher = faster cleavage; RNA array
# Conditions: with glucosamine-6-phosphate
# Procedure, shortened: as §1
row,Variant,self-cleavage kobs at 10000 uM GlcN6P
1,U30C C58G C68A,2.17e-05 ± 1.9e-05 s⁻¹
2,U31C C58U,1.69e-05 ± 1.6e-05 s⁻¹
3,U31C G44A,2.09e-05 ± 1.3e-05 s⁻¹
4,G44C U46C,2.34e-05 ± 2.2e-05 s⁻¹
5,U47G C50A,2.33e-05 ± 2.2e-05 s⁻¹
6,A36C C70G,1.75e-05 ± 1e-05 s⁻¹
7,G38U U69A,1.95e-05 ± 1.6e-05 s⁻¹
8,C61G C70G C71G,3e-05 ± 1.7e-05 s⁻¹
